These are yes or no findings as the source states them, for the method shown. In cells and extracts the contact can be indirect. Some results given as binding are weak or reduced against the parent protein; the word gives no strength. Sequences can lack the tags named with a protein.

By UniProt entry, the sequences of proteins in these tests, tags left out.
UniProt O75396: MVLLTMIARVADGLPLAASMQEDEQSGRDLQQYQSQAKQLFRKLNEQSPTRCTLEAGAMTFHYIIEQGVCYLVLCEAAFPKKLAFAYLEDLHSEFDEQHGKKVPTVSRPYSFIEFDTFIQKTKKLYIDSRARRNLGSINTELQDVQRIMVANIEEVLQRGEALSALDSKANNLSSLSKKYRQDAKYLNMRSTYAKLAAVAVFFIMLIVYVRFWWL

One assay concerns the target T1, EGFP-ORP5 (UniProt Q9H0X9).
T1 sequence: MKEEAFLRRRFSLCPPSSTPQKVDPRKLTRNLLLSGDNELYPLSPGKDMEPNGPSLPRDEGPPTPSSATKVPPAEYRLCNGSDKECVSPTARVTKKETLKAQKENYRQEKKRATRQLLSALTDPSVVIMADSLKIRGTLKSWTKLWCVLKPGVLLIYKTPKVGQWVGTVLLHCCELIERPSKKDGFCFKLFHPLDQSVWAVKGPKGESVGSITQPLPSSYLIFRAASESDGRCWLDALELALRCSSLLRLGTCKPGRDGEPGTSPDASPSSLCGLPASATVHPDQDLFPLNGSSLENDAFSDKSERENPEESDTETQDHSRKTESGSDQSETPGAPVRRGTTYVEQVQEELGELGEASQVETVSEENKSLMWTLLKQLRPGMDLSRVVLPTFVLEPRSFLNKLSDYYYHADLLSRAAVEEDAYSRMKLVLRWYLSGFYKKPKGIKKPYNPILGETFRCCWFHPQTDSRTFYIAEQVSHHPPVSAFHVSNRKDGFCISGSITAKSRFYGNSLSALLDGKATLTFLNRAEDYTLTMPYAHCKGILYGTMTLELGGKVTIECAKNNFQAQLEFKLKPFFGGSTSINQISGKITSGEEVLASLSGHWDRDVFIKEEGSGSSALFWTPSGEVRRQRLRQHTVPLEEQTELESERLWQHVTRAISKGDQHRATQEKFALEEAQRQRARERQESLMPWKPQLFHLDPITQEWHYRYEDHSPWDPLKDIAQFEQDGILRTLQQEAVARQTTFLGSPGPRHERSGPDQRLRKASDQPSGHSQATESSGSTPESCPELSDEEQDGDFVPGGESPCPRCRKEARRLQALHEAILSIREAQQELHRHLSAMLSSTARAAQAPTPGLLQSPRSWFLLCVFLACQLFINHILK
Description: co-IP.

Another assay has as its target T2, EGFP-ORP8 (UniProt Q9BZF1).
T2 sequence: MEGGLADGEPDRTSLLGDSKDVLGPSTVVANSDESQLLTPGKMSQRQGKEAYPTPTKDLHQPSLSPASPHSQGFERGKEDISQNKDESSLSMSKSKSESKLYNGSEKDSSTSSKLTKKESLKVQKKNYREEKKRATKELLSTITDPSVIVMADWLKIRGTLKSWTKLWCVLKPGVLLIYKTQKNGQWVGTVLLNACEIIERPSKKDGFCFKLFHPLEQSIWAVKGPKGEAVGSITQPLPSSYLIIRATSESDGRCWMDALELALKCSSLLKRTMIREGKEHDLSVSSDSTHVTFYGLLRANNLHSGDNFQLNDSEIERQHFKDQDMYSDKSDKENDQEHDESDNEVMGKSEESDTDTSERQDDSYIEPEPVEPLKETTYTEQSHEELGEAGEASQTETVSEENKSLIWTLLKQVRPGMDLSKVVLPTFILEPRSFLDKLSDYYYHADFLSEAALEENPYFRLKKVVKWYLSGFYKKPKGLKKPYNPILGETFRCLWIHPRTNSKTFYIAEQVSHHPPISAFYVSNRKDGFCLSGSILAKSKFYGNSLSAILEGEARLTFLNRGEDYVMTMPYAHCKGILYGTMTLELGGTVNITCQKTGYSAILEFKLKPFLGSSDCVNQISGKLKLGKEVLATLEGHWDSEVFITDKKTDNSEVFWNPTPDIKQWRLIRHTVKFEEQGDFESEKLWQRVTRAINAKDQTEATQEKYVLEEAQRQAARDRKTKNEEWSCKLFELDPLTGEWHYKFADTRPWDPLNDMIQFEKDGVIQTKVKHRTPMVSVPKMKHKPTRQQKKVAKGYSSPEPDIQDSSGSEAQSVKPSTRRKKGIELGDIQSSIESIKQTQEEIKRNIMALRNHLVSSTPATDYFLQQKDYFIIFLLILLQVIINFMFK
Description: co-IP.

Regarding FLAG-Sec22b (from UniProt O75396 1-215), the binding entry in the assay with EGFP-ORP5 and with EGFP-ORP8 was “binds” throughout.

The values above are taken from doi:10.1101/2022.04.12.487993.
